# ± gives the standard deviation of the averaged measurements. This is a selection; strong and weak results do not stand in their true shares. Most values lie at the level of the controls, where differences are scatter.
# Chains of the proteins cited; added tags and fusions are not shown. Lines headed by an entry give the natural chain unless they say otherwise; changes in a name come on top.
# UniProt Q9Y2T7, whole entry: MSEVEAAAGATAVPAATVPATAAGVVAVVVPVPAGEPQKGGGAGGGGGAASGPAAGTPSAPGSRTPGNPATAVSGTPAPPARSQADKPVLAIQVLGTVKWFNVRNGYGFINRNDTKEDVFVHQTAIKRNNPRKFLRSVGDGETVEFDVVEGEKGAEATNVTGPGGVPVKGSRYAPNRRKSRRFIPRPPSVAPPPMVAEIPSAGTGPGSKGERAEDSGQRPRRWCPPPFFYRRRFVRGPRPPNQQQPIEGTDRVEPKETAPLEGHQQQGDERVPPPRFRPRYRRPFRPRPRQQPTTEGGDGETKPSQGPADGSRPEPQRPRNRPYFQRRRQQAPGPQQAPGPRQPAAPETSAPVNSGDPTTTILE
# UniProt Q9UNX4: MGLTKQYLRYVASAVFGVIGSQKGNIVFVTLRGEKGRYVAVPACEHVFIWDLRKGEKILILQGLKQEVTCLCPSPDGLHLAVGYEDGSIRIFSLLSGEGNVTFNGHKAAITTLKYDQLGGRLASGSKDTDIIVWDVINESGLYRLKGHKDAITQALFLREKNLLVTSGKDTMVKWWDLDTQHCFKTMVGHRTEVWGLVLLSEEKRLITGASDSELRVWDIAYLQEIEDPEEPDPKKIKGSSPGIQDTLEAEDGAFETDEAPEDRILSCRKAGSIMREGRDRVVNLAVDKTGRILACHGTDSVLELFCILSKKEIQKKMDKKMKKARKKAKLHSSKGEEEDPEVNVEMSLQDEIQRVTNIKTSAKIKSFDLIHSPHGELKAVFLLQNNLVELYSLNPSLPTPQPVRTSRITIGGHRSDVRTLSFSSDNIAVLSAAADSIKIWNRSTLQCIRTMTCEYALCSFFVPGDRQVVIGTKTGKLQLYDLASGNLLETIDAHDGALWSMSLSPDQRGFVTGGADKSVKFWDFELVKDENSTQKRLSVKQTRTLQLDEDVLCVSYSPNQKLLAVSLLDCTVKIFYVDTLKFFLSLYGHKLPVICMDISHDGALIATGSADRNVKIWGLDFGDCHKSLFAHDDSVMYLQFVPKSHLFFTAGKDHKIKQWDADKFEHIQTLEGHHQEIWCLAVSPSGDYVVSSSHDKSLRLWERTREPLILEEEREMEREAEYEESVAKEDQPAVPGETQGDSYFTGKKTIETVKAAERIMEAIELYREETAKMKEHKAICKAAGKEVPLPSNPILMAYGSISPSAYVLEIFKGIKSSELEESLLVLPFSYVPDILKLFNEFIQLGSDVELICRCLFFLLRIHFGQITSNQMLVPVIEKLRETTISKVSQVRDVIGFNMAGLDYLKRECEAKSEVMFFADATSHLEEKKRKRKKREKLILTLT
# UniProt Q9UJ83: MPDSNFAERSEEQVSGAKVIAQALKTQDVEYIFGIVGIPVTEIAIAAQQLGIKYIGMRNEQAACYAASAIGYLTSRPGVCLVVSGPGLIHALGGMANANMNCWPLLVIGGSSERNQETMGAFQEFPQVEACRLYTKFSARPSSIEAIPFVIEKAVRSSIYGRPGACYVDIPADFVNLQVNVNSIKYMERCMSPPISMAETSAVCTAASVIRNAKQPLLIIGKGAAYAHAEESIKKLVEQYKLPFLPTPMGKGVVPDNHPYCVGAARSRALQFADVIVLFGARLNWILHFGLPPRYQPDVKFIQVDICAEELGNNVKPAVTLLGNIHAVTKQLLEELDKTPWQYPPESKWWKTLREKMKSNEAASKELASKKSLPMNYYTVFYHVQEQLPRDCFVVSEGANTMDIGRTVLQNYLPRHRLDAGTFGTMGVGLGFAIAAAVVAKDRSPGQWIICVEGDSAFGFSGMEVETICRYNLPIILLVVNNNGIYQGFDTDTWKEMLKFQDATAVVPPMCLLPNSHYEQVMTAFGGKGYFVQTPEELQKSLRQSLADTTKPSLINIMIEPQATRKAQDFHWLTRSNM
# UniProt Q9UID6: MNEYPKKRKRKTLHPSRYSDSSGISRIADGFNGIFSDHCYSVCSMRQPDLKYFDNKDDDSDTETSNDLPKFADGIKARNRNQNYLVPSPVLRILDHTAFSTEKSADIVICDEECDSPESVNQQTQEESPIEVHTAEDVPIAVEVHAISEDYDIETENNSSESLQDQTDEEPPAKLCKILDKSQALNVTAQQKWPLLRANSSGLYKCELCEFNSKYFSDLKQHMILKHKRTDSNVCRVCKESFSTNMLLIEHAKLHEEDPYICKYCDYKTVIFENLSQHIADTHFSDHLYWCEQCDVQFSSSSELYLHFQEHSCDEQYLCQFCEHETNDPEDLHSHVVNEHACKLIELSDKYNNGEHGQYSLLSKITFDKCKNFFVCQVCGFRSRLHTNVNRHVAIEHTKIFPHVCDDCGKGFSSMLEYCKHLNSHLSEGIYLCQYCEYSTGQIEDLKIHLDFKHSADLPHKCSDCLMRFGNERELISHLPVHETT
# UniProt Q9Y383: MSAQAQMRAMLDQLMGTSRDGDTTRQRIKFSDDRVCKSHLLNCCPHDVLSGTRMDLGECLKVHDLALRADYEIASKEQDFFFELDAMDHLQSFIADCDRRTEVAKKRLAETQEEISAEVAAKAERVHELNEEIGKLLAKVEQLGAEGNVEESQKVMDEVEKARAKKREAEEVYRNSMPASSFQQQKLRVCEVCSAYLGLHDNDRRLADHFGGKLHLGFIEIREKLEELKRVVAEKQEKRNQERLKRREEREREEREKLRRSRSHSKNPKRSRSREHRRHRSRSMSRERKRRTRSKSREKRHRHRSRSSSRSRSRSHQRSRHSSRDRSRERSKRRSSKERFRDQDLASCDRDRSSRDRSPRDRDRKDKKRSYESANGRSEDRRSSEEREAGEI
# UniProt Q9Y223: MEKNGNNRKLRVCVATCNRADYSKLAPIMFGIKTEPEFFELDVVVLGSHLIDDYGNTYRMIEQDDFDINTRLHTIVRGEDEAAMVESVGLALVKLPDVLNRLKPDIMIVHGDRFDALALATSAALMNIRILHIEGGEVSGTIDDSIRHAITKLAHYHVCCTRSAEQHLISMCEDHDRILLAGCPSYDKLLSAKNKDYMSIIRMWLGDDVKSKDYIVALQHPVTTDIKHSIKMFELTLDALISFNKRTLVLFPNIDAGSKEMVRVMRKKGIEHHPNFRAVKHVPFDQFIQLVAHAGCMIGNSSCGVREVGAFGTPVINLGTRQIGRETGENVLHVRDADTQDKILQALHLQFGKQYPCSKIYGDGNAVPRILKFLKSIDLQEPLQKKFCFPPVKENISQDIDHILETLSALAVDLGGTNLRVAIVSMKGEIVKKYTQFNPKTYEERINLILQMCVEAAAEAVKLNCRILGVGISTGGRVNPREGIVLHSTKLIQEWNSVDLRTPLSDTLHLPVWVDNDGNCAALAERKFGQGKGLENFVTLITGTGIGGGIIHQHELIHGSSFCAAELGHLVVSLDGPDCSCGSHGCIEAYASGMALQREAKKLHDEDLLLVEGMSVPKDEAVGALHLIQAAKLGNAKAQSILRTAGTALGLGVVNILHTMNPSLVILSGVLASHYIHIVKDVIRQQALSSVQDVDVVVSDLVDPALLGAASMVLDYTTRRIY
# UniProt Q9Y2Q5, whole entry: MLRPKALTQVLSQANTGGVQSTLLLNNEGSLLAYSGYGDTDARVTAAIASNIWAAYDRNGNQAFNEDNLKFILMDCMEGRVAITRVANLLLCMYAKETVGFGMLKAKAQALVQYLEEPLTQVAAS
# UniProt Q9ULE6: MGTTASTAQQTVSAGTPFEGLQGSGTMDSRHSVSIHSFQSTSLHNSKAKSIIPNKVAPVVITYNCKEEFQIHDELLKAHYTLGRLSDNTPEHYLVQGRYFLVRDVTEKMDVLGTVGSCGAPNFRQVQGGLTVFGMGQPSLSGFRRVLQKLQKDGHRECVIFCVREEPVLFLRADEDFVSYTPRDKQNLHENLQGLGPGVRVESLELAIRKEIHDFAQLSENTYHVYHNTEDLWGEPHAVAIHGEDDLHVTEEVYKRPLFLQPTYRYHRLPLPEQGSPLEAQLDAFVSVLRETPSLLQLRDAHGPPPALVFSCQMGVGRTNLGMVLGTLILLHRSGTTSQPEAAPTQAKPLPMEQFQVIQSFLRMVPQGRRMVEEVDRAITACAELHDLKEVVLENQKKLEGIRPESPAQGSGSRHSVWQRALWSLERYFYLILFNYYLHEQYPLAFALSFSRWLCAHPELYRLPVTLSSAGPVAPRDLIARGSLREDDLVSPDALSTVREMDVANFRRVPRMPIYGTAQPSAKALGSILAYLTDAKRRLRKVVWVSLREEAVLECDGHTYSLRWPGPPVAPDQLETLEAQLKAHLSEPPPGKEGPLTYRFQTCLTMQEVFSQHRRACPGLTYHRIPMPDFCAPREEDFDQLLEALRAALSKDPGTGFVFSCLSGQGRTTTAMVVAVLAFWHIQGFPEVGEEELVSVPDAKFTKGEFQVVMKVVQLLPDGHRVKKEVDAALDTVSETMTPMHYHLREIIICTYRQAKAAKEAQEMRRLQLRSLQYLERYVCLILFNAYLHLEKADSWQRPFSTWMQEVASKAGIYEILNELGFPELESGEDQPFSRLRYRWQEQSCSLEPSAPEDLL
# UniProt Q9ULW0, whole entry: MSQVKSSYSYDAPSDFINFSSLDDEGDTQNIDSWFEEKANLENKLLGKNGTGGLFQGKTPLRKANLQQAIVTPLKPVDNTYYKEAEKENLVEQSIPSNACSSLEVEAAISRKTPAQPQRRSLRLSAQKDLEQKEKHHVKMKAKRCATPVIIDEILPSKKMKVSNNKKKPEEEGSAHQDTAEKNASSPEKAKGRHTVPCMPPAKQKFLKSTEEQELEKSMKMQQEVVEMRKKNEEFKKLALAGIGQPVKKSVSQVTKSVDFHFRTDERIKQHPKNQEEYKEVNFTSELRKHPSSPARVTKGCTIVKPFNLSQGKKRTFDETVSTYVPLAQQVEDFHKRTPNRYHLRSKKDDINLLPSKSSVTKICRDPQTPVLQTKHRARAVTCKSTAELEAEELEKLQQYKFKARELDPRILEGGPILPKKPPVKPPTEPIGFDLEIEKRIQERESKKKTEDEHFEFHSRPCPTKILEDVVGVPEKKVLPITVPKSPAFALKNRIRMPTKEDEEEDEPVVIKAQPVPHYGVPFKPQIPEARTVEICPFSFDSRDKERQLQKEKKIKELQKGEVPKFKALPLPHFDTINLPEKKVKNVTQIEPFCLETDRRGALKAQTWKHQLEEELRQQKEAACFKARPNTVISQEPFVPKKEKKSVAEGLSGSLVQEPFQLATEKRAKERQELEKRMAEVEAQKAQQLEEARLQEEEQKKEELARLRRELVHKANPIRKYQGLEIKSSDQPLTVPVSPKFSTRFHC
# UniProt Q9ULC3: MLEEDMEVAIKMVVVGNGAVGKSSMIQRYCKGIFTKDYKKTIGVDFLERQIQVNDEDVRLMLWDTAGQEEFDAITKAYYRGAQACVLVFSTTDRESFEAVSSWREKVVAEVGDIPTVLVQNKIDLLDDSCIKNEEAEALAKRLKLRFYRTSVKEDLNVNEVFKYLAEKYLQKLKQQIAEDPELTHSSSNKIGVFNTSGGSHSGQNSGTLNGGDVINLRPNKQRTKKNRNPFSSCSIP
# UniProt Q9Y2Y1: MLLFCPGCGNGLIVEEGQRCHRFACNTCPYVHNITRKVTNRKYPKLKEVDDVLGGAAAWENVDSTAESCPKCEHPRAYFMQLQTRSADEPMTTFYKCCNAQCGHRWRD
# UniProt Q9Y2U8: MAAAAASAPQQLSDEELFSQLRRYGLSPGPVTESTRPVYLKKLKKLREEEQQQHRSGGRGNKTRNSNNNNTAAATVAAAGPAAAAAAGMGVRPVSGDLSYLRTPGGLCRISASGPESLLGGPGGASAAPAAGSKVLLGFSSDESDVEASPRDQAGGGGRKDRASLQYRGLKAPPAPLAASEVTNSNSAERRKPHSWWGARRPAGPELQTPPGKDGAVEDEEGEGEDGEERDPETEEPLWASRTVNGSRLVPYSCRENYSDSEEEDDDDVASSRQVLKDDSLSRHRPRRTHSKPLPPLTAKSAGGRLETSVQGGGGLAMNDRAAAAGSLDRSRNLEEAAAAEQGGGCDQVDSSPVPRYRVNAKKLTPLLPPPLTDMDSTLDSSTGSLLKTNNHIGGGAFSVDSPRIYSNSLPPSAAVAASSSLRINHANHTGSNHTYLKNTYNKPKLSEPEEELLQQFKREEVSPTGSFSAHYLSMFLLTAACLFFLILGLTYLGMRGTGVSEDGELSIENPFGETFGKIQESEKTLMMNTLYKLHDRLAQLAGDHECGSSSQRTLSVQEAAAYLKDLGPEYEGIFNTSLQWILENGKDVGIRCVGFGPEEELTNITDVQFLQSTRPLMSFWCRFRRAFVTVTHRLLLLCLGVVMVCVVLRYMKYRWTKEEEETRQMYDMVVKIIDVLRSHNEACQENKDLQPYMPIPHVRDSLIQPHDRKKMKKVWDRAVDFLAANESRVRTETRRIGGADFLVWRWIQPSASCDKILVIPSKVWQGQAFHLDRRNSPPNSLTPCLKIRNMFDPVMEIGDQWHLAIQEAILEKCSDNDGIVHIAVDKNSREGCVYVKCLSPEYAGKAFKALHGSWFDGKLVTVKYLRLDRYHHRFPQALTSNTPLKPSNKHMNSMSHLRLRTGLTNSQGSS
# UniProt Q9UHA4, whole entry: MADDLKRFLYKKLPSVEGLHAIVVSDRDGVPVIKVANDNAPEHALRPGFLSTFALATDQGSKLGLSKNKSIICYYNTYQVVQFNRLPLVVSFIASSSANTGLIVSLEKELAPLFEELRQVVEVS
# Compound: Nc1ncnc2c1ncn2[C@@H]1O[C@H](COP(=O)(O)OP(=O)(O)NP(=O)(O)O)[C@@H](O)[C@H]1O [adenylyl imidodiphosphate]
# Test: NP40-soluble protein abundance relative to vehicle (solubility fold change) (ratio); higher = more soluble protein in presence of AMP-PNP
# Method in brief: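 Crude Jurkat lysate, prepared by Dounce homogenisation, was exposed to eight concentrations from 0.1 to 10 mM for 10 min at room temperature and then 3 min at 37 °C. Solubilisation used 0.8% NP40 with benzonase for 60 min at 4 °C, followed by ultracentrifugation and TMT labelling of the supernatant for LC-MS/MS. After vsn normalisation of intensities, each value is the fold change against the detergent-processed vehicle within each replicate, across three independent experiments.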
Target,NP40-soluble protein abundance (concentration: 0.1mM),NP40-soluble protein abundance (concentration: 0.5mM)
YBX2 (UniProt Q9Y2T7),0.996 ± 0.013,1.01 ± 0.051
UniProt Q9Y2U5,0.993 ± 0.038,1.02 ± 0.013
UniProt Q9UNS1 and related entries,0.971 ± 0.037,0.96 ± 0.038
VPS4A (UniProt Q9UN37),1.04 ± 0.071,1.02 ± 0.052
GPATCH8 (UniProt Q9UKJ3),1.04 ± 0.038,1.04 ± 0.052
SERGEF (UniProt Q9UGK8),0.986 ± 0.03,0.983 ± 0.036
UniProt Q9UBT2 and related entries,1.03 ± 0.022,1.04 ± 0.05
WDR3 (UniProt Q9UNX4),1.05 ± 0.04,1.02 ± 0.095
UniProt Q9UJ83 and related entries,1.01 ± 0.043,0.982 ± 0.06
UniProt Q9UKI8-5|Q9UKI8,0.959 ± 0.031,0.99 ± 0.03
MTMR6 (UniProt Q9Y217),0.978 ± 0.023,0.983 ± 0.038
UniProt Q9ULT8 and related entries,1.03 ± 0.014,0.972 ± 0.026
UniProt Q9UQ49 and related entries,0.989 ± 0.019,1 ± 0.0049
GINS2 (UniProt Q9Y248),0.9988 ± 0.0055,1.02 ± 0.014
ZMYM2 (UniProt Q9UBW7),0.985 ± 0.025,0.962 ± 0.016
UniProt Q9UID6 and related entries,1 ± 0.022,1.011 ± 0.0079
UniProt Q9UL18,1.028 ± 0.005,1.04 ± 0.011
LUC7L2 (UniProt Q9Y383),1.05 ± 0.06,1.03 ± 0.082
WBP11 (UniProt Q9Y2W2),0.989 ± 0.0099,1.03 ± 0.023
UniProt Q9UN36 and related entries,0.971 ± 0.038,0.979 ± 0.03
UniProt Q9Y223 and related entries,1.03 ± 0.012,0.986 ± 0.09

Target,NP40-soluble protein abundance (concentration: 0.1mM),NP40-soluble protein abundance (concentration: 0.5mM)
UniProt Q9Y2Q5 and related entries,1.05 ± 0.025,0.993 ± 0.057
MRPS16 (UniProt Q9Y3D3),1.04 ± 0.025,1.02 ± 0.042
FAM8A1 (UniProt Q9UBU6),0.956 ± 0.029,0.978 ± 0.026
UniProt Q9UEW8 and related entries,1.06 ± 0.025,1.06 ± 0.074
DDX20 (UniProt Q9UHI6),1.01 ± 0.067,1.03 ± 0.079
ENOPH1 (UniProt Q9UHY7),1.02 ± 0.019,1.02 ± 0.032
UniProt Q9UL54-2,1.02 ± 0.022,1.02 ± 0.042
UniProt Q9Y333,0.97 ± 0.11,0.999 ± 0.1
UniProt Q9Y2Q0 and related entries,0.991 ± 0.022,0.9814 ± 0.0087
UniProt Q9UN86-2,0.9939 ± 0.0021,1.03 ± 0.036
UniProt Q9UNL4 and related entries,1.01 ± 0.078,1.02 ± 0.032
UniProt Q9ULE6,0.981 ± 0.028,0.974 ± 0.051
UniProt Q9ULJ7 and related entries,0.996 ± 0.075,0.951 ± 0.098
DICER1 (UniProt Q9UPY3),1.01 ± 0.015,0.988 ± 0.037
TPX2 (UniProt Q9ULW0),0.998 ± 0.0042,1.05 ± 0.048
RAB23 (UniProt Q9ULC3),0.996 ± 0.028,0.97 ± 0.024
VPS28 (UniProt Q9UK41),0.988 ± 0.065,1 ± 0.059
UBQLN2 (UniProt Q9UHD9),0.985 ± 0.035,1.05 ± 0.032
UniProt Q9UKW4 and related entries,1 ± 0.011,1.02 ± 0.024
POLR3K (UniProt Q9Y2Y1),0.994 ± 0.021,0.9949 ± 0.0051
GIT1 (UniProt Q9Y2X7),1 ± 0.027,1.02 ± 0.059

# As a working copy, part of the list above:
Target,NP40-soluble protein abundance (concentration: 0.1mM),NP40-soluble protein abundance (concentration: 0.5mM)
UniProt Q9ULJ7 and related entries,0.996 ± 0.075,0.951 ± 0.098
DICER1 (UniProt Q9UPY3),1.01 ± 0.015,0.988 ± 0.037
TPX2 (UniProt Q9ULW0),0.998 ± 0.0042,1.05 ± 0.048

# (list continues)

Target,NP40-soluble protein abundance (concentration: 0.1mM),NP40-soluble protein abundance (concentration: 0.5mM)
UniProt Q9UJZ1 and related entries,0.975 ± 0.017,1.04 ± 0.053
UniProt Q9Y3D0,0.99 ± 0.047,1 ± 0.048
USP20 (UniProt Q9Y2K6),1 ± 0.028,1.02 ± 0.014
UniProt Q9Y2H1,1.01 ± 0.014,1.03 ± 0.054
UniProt Q9UKZ1,0.965 ± 0.025,0.983 ± 0.021
ANAPC7 (UniProt Q9UJX3),1.02 ± 0.035,1.02 ± 0.012
UniProt Q9UBS8 and related entries,0.981 ± 0.018,0.993 ± 0.023
PEF1 (UniProt Q9UBV8),0.985 ± 0.029,0.991 ± 0.019
UniProt Q9UHB4 and related entries,0.984 ± 0.025,0.985 ± 0.022
PLAA (UniProt Q9Y263),0.973 ± 0.023,0.972 ± 0.014
TMED5 (UniProt Q9Y3A6),0.985 ± 0.018,0.965 ± 0.02
CNOT7 (UniProt Q9UIV1),1.01 ± 0.045,0.974 ± 0.017
ACAD8 (UniProt Q9UKU7),0.9956 ± 0.0064,0.989 ± 0.021
DRG1 (UniProt Q9Y295),1.02 ± 0.014,0.995 ± 0.023
ARMCX3 (UniProt Q9UH62),1.01 ± 0.028,1.02 ± 0.057
UniProt Q9UGU0 and related entries,0.984 ± 0.043,0.998 ± 0.048
GTF3C4 (UniProt Q9UKN8),1.01 ± 0.049,1.01 ± 0.025
LEMD3 (UniProt Q9Y2U8),0.997 ± 0.035,1 ± 0.055
GGT7 (UniProt Q9UJ14),0.978 ± 0.025,1.01 ± 0.016
UniProt Q9UHA4,1.08 ± 0.084,1.02 ± 0.053
